Assay in all cases: split reporter; Venus BiFC: VC-Hox and VN-TF co-expressed in live Drosophila embryos with the corresponding Hox-Gal4 driver (abdA-Gal4 for AbdA); epidermis, stage 10-12, quantified at stage 10; affected if equal or lower than 50% of wild type, stronger if 120% or more
Experiment [1] addresses HoxB8 (VC fusion) (mouse) (UniProt P09632).
Experiment [2] concerns the target VC-Antp (Drosophila melanogaster) (UniProt P02833).
For experiment [3], the target named is VC-Scr (Drosophila melanogaster) (UniProt P09077).
The target of experiment [4] is VC-Ubx (Drosophila melanogaster) (UniProt P83949).
Experiment [5] has as its target VC-AbdA (Drosophila melanogaster) (UniProt P29555).
Experiment [6] addresses VC-AbdB (Drosophila melanogaster) (UniProt P09087).

By UniProt entry, the sequences of proteins in these tests, tags left out.
UniProt P09632: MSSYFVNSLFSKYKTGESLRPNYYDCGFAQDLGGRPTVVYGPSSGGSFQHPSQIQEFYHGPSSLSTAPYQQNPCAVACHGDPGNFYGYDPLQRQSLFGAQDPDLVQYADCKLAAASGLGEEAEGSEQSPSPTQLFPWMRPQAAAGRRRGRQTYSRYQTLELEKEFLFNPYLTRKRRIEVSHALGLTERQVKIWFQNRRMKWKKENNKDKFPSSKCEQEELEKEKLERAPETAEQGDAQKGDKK
UniProt P02833: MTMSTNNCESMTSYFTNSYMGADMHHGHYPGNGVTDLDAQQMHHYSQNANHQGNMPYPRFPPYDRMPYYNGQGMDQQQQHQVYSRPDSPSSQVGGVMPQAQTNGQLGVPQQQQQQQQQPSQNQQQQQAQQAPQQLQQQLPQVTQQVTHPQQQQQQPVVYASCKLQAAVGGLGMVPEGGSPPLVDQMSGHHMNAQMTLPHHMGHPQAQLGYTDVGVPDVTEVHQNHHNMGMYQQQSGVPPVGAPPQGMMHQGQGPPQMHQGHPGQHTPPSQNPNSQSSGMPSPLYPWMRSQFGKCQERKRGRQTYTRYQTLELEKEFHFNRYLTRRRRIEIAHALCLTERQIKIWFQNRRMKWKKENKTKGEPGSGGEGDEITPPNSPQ
UniProt P09077: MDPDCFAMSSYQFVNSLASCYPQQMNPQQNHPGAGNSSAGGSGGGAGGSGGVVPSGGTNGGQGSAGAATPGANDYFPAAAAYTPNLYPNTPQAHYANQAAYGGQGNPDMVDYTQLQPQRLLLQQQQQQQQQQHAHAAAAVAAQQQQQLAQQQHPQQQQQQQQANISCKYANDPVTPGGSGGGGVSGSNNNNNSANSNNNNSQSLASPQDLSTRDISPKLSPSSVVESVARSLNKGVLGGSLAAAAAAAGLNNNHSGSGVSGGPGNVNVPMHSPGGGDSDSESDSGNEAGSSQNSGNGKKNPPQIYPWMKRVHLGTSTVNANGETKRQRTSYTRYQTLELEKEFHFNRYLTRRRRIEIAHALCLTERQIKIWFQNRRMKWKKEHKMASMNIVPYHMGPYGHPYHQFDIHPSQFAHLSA
UniProt P83949: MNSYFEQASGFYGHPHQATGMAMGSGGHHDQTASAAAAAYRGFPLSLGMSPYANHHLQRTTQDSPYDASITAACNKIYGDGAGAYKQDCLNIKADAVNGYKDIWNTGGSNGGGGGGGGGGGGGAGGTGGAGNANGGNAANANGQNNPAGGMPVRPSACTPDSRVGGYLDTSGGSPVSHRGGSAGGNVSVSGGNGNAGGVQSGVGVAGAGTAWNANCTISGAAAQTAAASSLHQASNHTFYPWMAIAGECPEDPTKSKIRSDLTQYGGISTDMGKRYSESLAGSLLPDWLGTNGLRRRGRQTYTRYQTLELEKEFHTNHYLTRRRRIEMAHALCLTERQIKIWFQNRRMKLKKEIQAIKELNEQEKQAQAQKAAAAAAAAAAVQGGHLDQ
UniProt P29555: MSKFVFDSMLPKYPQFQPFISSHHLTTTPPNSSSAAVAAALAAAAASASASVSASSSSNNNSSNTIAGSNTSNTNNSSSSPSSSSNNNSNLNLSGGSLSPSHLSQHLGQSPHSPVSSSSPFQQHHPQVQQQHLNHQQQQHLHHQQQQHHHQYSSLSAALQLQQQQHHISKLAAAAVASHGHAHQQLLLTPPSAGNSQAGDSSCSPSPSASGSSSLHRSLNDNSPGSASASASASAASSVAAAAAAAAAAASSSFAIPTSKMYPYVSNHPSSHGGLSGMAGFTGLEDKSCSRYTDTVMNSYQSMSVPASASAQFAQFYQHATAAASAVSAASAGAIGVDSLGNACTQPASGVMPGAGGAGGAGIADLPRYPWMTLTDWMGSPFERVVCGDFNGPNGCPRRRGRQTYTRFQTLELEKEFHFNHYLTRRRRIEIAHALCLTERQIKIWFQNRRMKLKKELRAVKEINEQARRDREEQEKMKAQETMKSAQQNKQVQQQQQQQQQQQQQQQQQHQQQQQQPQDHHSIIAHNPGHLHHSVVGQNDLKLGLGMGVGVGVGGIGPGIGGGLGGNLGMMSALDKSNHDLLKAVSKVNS

No constants are given. Whether binding was seen depends on the method and setting. In cells and extracts the contact can be indirect. Some entries that bind do so weakly or less than the wild type.

The text below walks through data of publication PMC4392834.

B1: VN-Bagpipe (protein, UniProt P22809 1-382)
chain: MLNMESAGVSAAMAGLSKSLTTPFSINDILTRSNPETRRMSSVDSEPEPEKLKPSSDRERSISKSPPLCCRDLGLYKLTQPKEIQPSARQPSNYLQYYAAAMDNNNHHHQATGTSNSSAADYMQRKLAYFGSTLAAPLDMRRCTSNDSDCDSPPPLSSSPSESPLSHDGSGLSRKKRSRAAFSHAQVFELERRFAQQRYLSGPERSEMAKSLRLTETQVKIWFQNRRYKTKRKQIQQHEAALLGASKRVPVQVLVREDGSTTYAHMAAPGAGHGLDPALINIYRHQLQLAYGGLPLPQMQMPFPYFYPQHKVPQPIPPPTQSSSFVTASSASSSPVPIPIPGAVRPQRTPCPSPNGQMMSVESGAESVHSAAEDVDENVEID
For the molecule B1, the binding result in experiment [1] and in experiment [2] was “no binding” in each case.

B2: VN-Eyes absent (protein, UniProt Q05201 1-766)
chain: MVTLMPYNYAAPRCGLIDKMIEPKVKRPKTDHTDTHERNRLCNLSQQQQQQQPQQQQTHQQQQQQQQQSHQQSHSSTVLASNGPSSAGAGMGVGVGGGGGSGGGVGGGVGQCSPLGLPPQSQPLQPTIGSLASLSGHYSNGNANPNVNSSSCSLATASSFAQSAGSSFSTYQQAGGTSGGVSGEDGVVGGATVMSHWTHDGTGSSAAVKSESRSPGQVHASLDNGSVAGSNLYGCSSASNPLDGGAVAVNSSAVAAAAAAVYDGKHDYYYYNSMQQYTPPPFYSGYGTPYAAATAARQAKMEPGAAAAAAAYLTPSYAASGNNNSQLYSSPYAGYNNFGQQDYGGYYNEQYGNYYSPANYSPYAVSSPSSSASHGHGFHVAASSNLSESPTDTHSTTPVHQTTHSPHSPLPISPSTGSGIGPLGNVSAAAAAAALNSSGGSSVGTAGSGGVATSKTTPTGKTGRARGRRHQQPSPTRSTASDTGNSEAVKPPERVFVWDLDETLIIFHTLLSGSYANRYTKDHSSLMTIAFRMEEMVFNMADTHFFFNEIEECDQVHIDDVSSDDNGQDLSAYNFATDGFHTNTPPGAPPNLCLPTGVRGGVDWMRKLAFRYRKIKDIYNSYRGNVGTLLGPGKREAWLQIRSEIEVATDNWATLALKCLSMISQRENCVNVLVTSTQLAPALAKVLLFGLGGIFNIENIYSAHKIGHETCYERIVTRFGRKSTYVVIGDGNEEETAAKAMNFPFWRISAHSDIRALYTALDMGFL
Consider B2, for which the binding result in experiment [3] and in experiment [4] was “no binding” in each case.

B3: VN-Biniou (protein, UniProt Q9VS05 1-676)
chain: MIKSEEASDRSVMTMDQLGGYYHDPRAHPPFSHPHAHSHPHQHTHTGHPYRAGNLLTGGNYQAMGGGESPTELIDEKPNIGYMELKHYMDATPTATPVSAAQHYSLSALHSMGTPPASSSPIPPYGVLMTAHSAGSASPQSNSKTPTDLPQDLQYASSSTSTAKVQPLQVQLQPLNHQYASTIKYCSNNTILSANDYQLLTSQEQAGQQQPQQLPAQQLQHSPGGGYMSRISTSPSQVISNAHGMPVLNYSSSSSSPAKSLNGSESSPPSQNHLENKVSGSAVVGTGGSSQQDAPSTPDTTKKSGTRRPEKPALSYINMIGHAIKESPTGKLTLSEIYAYLQKSYEFFRGPYVGWKNSVRHNLSLNECFKKLPKGMGVGKPGKGNYWTIDENSAHLFEDEGSLRRRPRGYRSKIKVKPYAGHANGYYASGYGDAGMDNGNYYASPAFASYDYSAAGATGVSPAGGQGFADPWNAHAAHSGSSSVGVGMGVGPLPQYTNISCLAAGGNVNGSATTPPLAHSALGMAPSASSSSSPLGAAATLQSDYAPTASLVAAGYSYATSAGSLDNGLRSISLQQLPGLSSIQHAQAQAQAQAHHHHHQHHASHPSHSHQGHGSMHQNHGTSSTTPPPSQSGGSHGIDHSPIDRKPAYLPPISPPPMMVALNGGGGYYEGLKYAN
Consider B3, for which, in experiment [1], the binding result is “no binding”.

B4: VN-Empty spiracles (protein, UniProt P18488 1-494)
chain: MTKMIPPVPTAAAAVMMPTPKQKIGFSIESIVGNDVSTAGGNSTPDLSGPQSPPPGERNVPGSPPQTPPATLTLIPGSPPHHLMAPPAHGLPYPHPHAQQQHLQAPHPHPHLSPAQQHVLHQHLLMQQQHPGTPKSHQDIQELLQRLHHNAAMASGLSPLQTRLSPETEQPQMAVSLKRERSPAPPAMEQAENPAQRIQPPHTPPKSVSPQSSQPSSSPTLLISSPHATPPQQQQQQPPPNYPKPAMMHPGGAGPMMMPGMPPAGLVRPFPMGPGGPPMPQGQPGLPDIKALPPYINAPPELPPQHNPHLIAAAQFQMAAALQAGHVLGPAAAAAAAAGLPPHAAQFMPNPGMARDSYQLYPWLLSRHGRIFPHRFPGSFLVPPFRKPKRIRTAFSPSQLLKLEHAFESNQYVVGAERKALAQNLNLSETQVKVWFQNRRTKHKRMQQEDEKGGEGGSQRNMHNGSGDEDDDELIDMEMDECPSDEEHELDASH
Consider B4, for which, in experiment [1], the binding entry is on record as “no binding”.

B5: VN-Slouch (protein, UniProt P22807 1-659)
chain: MVMLQSPAQKASDSASAQNTAVGGLMSPNSNPDSPKSNTSPDVASADSVVSGTGGGSTPPAAKIPKFIISANGAAVAGKQEQELRYSLERLKQMSSESGSLLSRLSPLQEDSQDKEKPNHNNNNSLTNHNANSNTRRSQSPPASVGSVSFSSPAQQRKLLELNAVRHLARPEPLQHPHAALLQQHPHLLQNPQFLAAAQQHMHHHQHQHHQHPAHPHSHQHPHPHPHPHPHPHPSAVFHLRAPSSSSTAPPSPATSPLSPPTSPAMHSDQQMSPPIAPPQNPPHSSQPPQQQQVAAPSDMDLERIKLVAAVAARTTQASSTSALASASNSVSNASISISNSSSGSPSGRDLSDYGFRIQLGGLAAAAAAAAATSRQIAAATYARSDTSEELNVDGNDEDSNDGSHSTPSVCPVDLTRSVNSSAAANPSSASTSASSDRDAATKRLAFSVENILDPNKFTGNKLPSGPFGHPRQWSYERDEEMQERLDDDQSEDMSAQDLNDMDQDDMCDDGSDIDDPSSETDSKKGGSRNGDGKSGGGGGGGSKPRRARTAFTYEQLVSLENKFKTTRYLSVCERLNLALSLSLTETQVKIWFQNRRTKWKKQNPGMDVNSPTIPPPGGGSFGPGAYASGLLYSHAVPYPPYGPYFHPLGAHHLSHSHS
B5: the binding entry in experiment [5] is recorded as “binds”; in experiment [6] it was “no binding”.

B6: VN-Twist (protein, UniProt P10627 1-490)
chain: MMSARSVSPKVLLDISYKPTLPNIMELQNNVIKLIQVEQQAYMQSGYQLQHQQQHLHSHQHHQQHHQQQHAQYAPLPSEYAAYGITELEDTDYNIPSNEVLSTSSNQSAQSTSLELNNNNTSSNTNSSGNNPSGFDGQASSGSSWNEHGKRARSSGDYDCQTGGSLVMQPEHKKLIHQQQQQQQQHQQQIYVDYLPTTVDEVASAQSCPGVQSTCTSPQSHFDFPDEELPEHKAQVFLPLYNNQQQQSQQLQQQQPHQQSHAQMHFQNAYRQSFEGYEPANSLNGSAYSSSDRDDMEYARHNALSSVSDLNGGVMSPACLADDGSAGSLLDGSDAGGKAFRKPRRRLKRKPSKTEETDEFSNQRVMANVRERQRTQSLNDAFKSLQQIIPTLPSDKLSKIQTLKLATRYIDFLCRMLSSSDISLLKALEAQGSPSAYGSASSLLSAAANGAEADLKCLRKANGAPIIPPEKLSYLFGVWRMEGDAQHQKA
For B6, the binding entry in experiment [5] was “binds”; in experiment [6] it was “binds”; in experiment [2], “binds”; in experiment [3], “no binding”; in experiment [4], “binds”.

B7: VN-Serpent (protein, UniProt P52172 1-1264)
chain: MTKTTKPKEKAAAGGAVIGSGSGLGSVTKAGGGSLLSNAADSKIRTAKSNNNKRQAGRAATALAATTTASALAATTTAGATGSNAAANETEIAIETENGEAATPTAAATAAAANLSSLESARSQALTSVVSETARQAVTTANASATSTSTVTAATEIATATASDTAATSEAAIDDDPSAINTNNNNNNSKAQNDASESVKTKVISYHQSEDQQQQQQQQAQIYEQQQQFLSQQLISHHQQEQHQQAQQQQHQQVVQEQHQASWLAYDLTSGSAAAAAAAAAAASHPHLFGQFSYPPSHHTPTQLYEHYPSTDPIMRNNFAFYSVYTGGGGGVGVGMTSHEHLAAAAAAAAAVAQGTTPNIDEVIQDTLKDECFEDGHSTDYHVLTSVSDMHTLKDSSPYALTHEQLHQQQHHHQQQLHHHQQQQQQLYHQQQQQQQQQQHHHHHNNSTSSAGGDSPSSSHALSTLQSFTQLTSATQRDSLSPENDAYFAAAQLGSSLQNSSVYAGSLLTQTANGIQYGMQSPNQTQAHLQQQHHQQQQQQHQQHQQQQLQQQQQQHHHNQHQHHNSSSSSPGPAGLHHSSSSAATAAAVAAATAAVNGHNSSLEDGYGSPRSSHSGGGGGGTLPAFQRIAYPNSGSVERYAPITNYRGQNDTWFDPLSYATSSSGQAQLGVGVGAGVVSNVIRNGRAISAANAAAAAAADGTTGRVDPGTFLSASASLSAMAAESGGDFYKPNSFNVGGGGRSKANTSGAASSYSCPGSNATSAATSAVASGTAATAATTLDEHVSRANSRRLSASKRAGLSCSNCHTTHTSLWRRNPAGEPVCNACGLYYKLHSVPRPLTMKKDTIQKRKRKPKGTKSEKSKSKSKNALNAIMESGSLVTNCHNVGVVLDSSQMDVNDDMKPQLDLKPYNSYSSQPQQQLPQYQQQQQLLMADQHSSAASSPHSMGSTSLSPSAMSHQHQTHPHQQQQQQLCSGLDMSPNSNYQMSPLNMQQHQQQQSCSMQHSPSTPTSIFNTPSPTHQLHNNNNNNNNSSIFNNNNNNNSSSNENNNKLIQKYLQAQQLSSSSNSGSTSDHQLLAQLLPNSITAAAAAAAAAAAAAIKTEALSLTSQANCSTASAGLMVTSTPTTASSTLSSLSHSNIISLQNPYHQAGMTLCKPTRPSPPYYLTPEEDEQPALIKMEEMDQSQQQQQQQQHQQQQHGEIMLSRSASLDEHYELAAFQRHQQQQQQLQQQTAALLGQHEQHVTNYAMHKFGVDRETVVKME
Turning to B7, the binding result in experiment [5] is listed as “binds”; in experiment [4] it was “no binding”.
